SMILES strings stand for the structures. This is one part of the list. Further columns of the screen follow, without active or inactive calls. The list favours compounds with an active or inconclusive main result. The note in brackets gives the kind of curve behind each potency; many fits are weak.

A short description of this experiment: IkB Signaling. To be noted: ABC-DLBCL IkBa-CBG/CBR dual luciferase ratio (green luciferase fused to IkBa over red control in OCI-Ly3 lymphoma cells), 4 h; measured here: control luc red channel unless noted. In a few lines: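 In this assay, an IκBα–CBG68 fusion accumulates when IKK-driven degradation is blocked; native CBR normalizes for cell number. OCI-Ly3 cells were treated 4 h with compound and doxycycline, then green and red light read after Chroma-Glo addition.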
Take `CC(C)c1ccc(S(=O)(=O)N2CCN(CC(=O)Nc3ccc4c(c3)OCO4)CC2)cc1`: the AC50 is 15.8 µM [falling, partial curve]. Consider `COc1ccc(CC(=O)Nc2c(C(=O)N3CCN(c4ccccc4F)CC3)oc3ccccc23)cc1OC`, for which the AC50 is 15.8 µM [falling, partial curve]. Turning to `O=C1C2=C(Nc3ccccc3SC2c2ccc(C(F)(F)F)cc2)c2ccccc21` (configuration not stated), the AC50 is 7.94 µM [falling, partial curve]. For `Cc1nc(N2CCN(C(=O)c3ccco3)CC2)c2c3c(sc2n1)CCC3`, the AC50 was 20 µM [falling, partial curve]. Consider `COc1ccc(NC(=O)c2c(NC(=O)c3cccc(C)c3)sc3c2CCC3)cc1`, for which the half-maximal activity concentration (AC50) was 12.6 µM [falling, partial curve, poor fit]. `COc1cccc(CNC(=O)c2ccc3oc(=O)n(Cc4ccccc4)c3c2)c1`: the AC50 was 12.6 µM [falling, partial curve]. To `COCCNC(=O)c1ccc2c(c1)NC(=O)C(CS(=O)(=O)Cc1ccc(F)cc1Cl)N2` (configuration not stated) belongs 39.8 µM [falling, partial curve]; to `O=C(Nc1nnc(-c2ccccc2)o1)NC1CCCCC1`, 6.31 µM [rising, single point] [measured here: IkB-luc green channel]; to `Cc1cc(O)c(C(c2ccc(F)cc2)N2CCN(c3ccccc3)CC2)c(=O)n1Cc1ccco1` (configuration not stated), 39.8 µM [falling, single point].

Consider `O=C(CSc1nc2c(c(=O)[nH]1)CCC2)Nc1cccc(O)c1`, for which the AC50 was 15.8 µM [falling, partial curve, poor fit]. Take `COc1ccc(OC)c(NC(=O)Nc2cccc(OCc3cc(=O)n4cc(C)ccc4n3)c2)c1`: the AC50 is 0.398 µM [falling, full curve]. In the case of `CCOc1ccc(-n2ccnc2SCC(=O)NCc2ccc3c(c2)OCO3)cc1`, the concentration at half-maximal activity (AC50) was 25.1 µM [falling, partial curve]. Regarding `Cc1ccc(N2CCN(c3ncnc4onc(-c5ccc(F)cc5)c34)CC2)c(C)c1`, the AC50 is 7.94 µM [falling, single point].

Turning to `COc1ccc(-n2nnnc2C2CCN(S(=O)(=O)c3cc(Cl)ccc3OC)CC2)cc1`, the AC50 is 3.98 µM [falling, partial curve].

For `CCOC(=O)NCc1cc(-c2nn(C)c(=O)c3ccccc23)ccc1C`, the AC50 is 20 µM [falling, partial curve]. `Cc1ccc(S(=O)(=O)NCCc2nnc3ccc(SCc4cccc(F)c4)nn23)cc1`: the AC50 was 39.8 µM [falling, single point]. With `CCN(CC)c1ccc(NC(=O)CN2CCN(S(=O)(=O)c3ccc(C(C)C)cc3)CC2)cc1`, the AC50 was 25.1 µM [falling, partial curve]. For the molecule `COc1cc(NC(=O)Cn2c(=O)n(Cc3ccccc3)c(=O)c3oc4ccccc4c32)cc(OC)c1`, the AC50 was 6.31 µM [falling, partial curve].

Take `CCOC(=O)C1CCCN(C(=O)c2sc3nc(-c4ccc(OC)cc4)cn3c2C)C1` (configuration not stated): the AC50 was 3.98 µM [falling, partial curve].

`Cc1cc(-c2ccc(S(=O)(=O)Nc3ccccc3C)cc2)on1`: the AC50 is 7.94 µM [falling, partial curve].

Take `CC(C)Cn1c(SC(C)C(=O)Nc2ccc3c(c2)OCCO3)nc2ccccc2c1=O` (configuration not stated): the AC50 is 10 µM [falling, partial curve]. For `COc1ccc(-c2noc(CC(=O)N(C)c3ccccc3F)n2)cc1`, the AC50 was 39.8 µM [falling, single point].

For the molecule `Cc1nc(N2CCOCC2)c2c(C(=O)N3CCN(c4cc(Cl)ccc4C)CC3)c(C)oc2n1`, the AC50 was 20 µM [falling, partial curve]. For the molecule `COc1ccc(-n2cc(C(=O)NCCc3ccc(C)cc3)c3ccccc3c2=O)cc1`, the AC50 was 10 µM [falling, partial curve].

Consider `CC1CCCCN1C(=O)CSc1nc2ccccc2nc1Cc1ccccc1` (configuration not stated), for which the AC50 is 31.6 µM [falling, single point]. Turning to `CCOc1ccc(N2C(=O)c3[nH]nc(-c4ccccc4)c3C2c2ccc(O)c(OC)c2)cc1` (configuration not stated), the AC50 was 39.8 µM [falling, partial curve, poor fit]. `COC(=O)Nc1c(-c2ccccc2)nc2ccc(C)cn12`: the AC50 was 25.1 µM [falling, partial curve].

With `COc1ccc(OC)c(NC(=O)Cn2nc3c(cc2=O)CCCC3)c1`, the AC50 is 0.0631 µM [rising, full curve].

For the molecule `COc1ccc(CCNS(=O)(=O)c2ccc3c(c2)c(=O)n(C)c(=O)n3C)cc1OC`, the half-maximal activity concentration (AC50) was 39.8 µM [falling, single point].

In the case of `Cc1ccc(NC(=O)c2nc(S(C)(=O)=O)ncc2N(Cc2cccc(F)c2)Cc2ccco2)cc1C`, the AC50 is 2 µM [falling, full curve]. On to `CCOc1ccccc1N1CCN(CC(O)COc2ccc3c(C)cc(=O)oc3c2)CC1` (configuration not stated), for which the concentration at half-maximal activity (AC50) is 15.8 µM [falling, partial curve]. Take `O=C(CSc1ccccc1)Nc1ccc(S(=O)(=O)NCC2CCCO2)cc1` (configuration not stated): the AC50 is 12.6 µM [falling, partial curve]. Regarding `COc1ccc(N2CCN(C(=O)C(C)(C)Oc3ccc(Cl)cc3)CC2)cc1`, the AC50 was 15.8 µM [falling, partial curve]. The figure for `Cc1ccc(CNC(=O)c2oc3ccc(S(=O)(=O)N4CCCC(C)C4)cc3c2C)cc1` (configuration not stated) is 3.16 µM [falling, full curve]; for `Cc1ccc2c(CC(=O)N3CCN(c4cccc(Cl)c4)CC3)coc2c1` it is 39.8 µM [falling, single point]. As for `CCCCNc1ccc(-c2nc(-c3ccccc3)no2)cc1[N+](=O)[O-]`, the AC50 is 5.01 µM [falling, partial curve]. Consider `COc1ccc(C2C(=O)N(C3CCC(C)CC3)CC(=O)N2Cc2ccc(C)cc2)cc1OC` (configuration not stated), for which the AC50 was 0.158 µM [rising, full curve, poor fit].

Take `C=CCOC(=O)CCC(=O)Nc1cc(OC)nc(OC)n1`: the AC50 was 15.8 µM [falling, partial curve]. To `Cc1cc(C)cc(NC(=O)Cn2nnc(C(=O)NCCc3ccccc3)c2N)c1` belongs 15.8 µM [rising, partial curve]; to `CCOc1ccc(C(=O)NCCc2sc(-c3ccc(C)cc3)nc2C)cc1`, 39.8 µM [falling, single point].

Consider `O=C(Nc1nc2c(s1)CCc1ccccc1-2)c1ccco1`, for which the AC50 was 5.01 µM [falling, partial curve]. With `COc1cccc(OCCSc2nnc3sc4ccccc4n23)c1`, the AC50 is 25.1 µM [falling, partial curve]. The figure for `CC1CCC(NC(=O)c2ccc3c(c2)N(Cc2ccccc2F)C(=O)c2ccccc2S3)CC1` (configuration not stated) is 0.794 µM [rising, full curve]. As for `CC1CCN(S(=O)(=O)c2ccc3c(c2)N(CC(=O)NCc2ccccc2Cl)C(=O)CS3)CC1`, the AC50 was 25.1 µM [falling, single point]. Regarding `O=C(Nc1ccc2c(c1)OCO2)C1CCCN(c2nc3ccccc3s2)C1` (configuration not stated), the AC50 was 31.6 µM [falling, partial curve]. For `Cc1ccc(N2CC(NC(=O)Cc3cccs3)CC2=O)cc1` (configuration not stated), the AC50 was 25.1 µM [rising, partial curve, poor fit].

In the case of `CC1CCN(CC(=O)N2CCCc3c2c(=O)oc2ccc(OCc4ccccc4)cc32)CC1`, the AC50 is 31.6 µM [falling, partial curve]. Take `Cc1ccc(Cn2c(NC(=O)c3ccco3)nc3ccccc32)cc1`: the AC50 was 5.01 µM [rising, single point] [measured here: IkB-luc green channel]. `CC(C)CCN1C(=O)N(c2ccccc2)C(=O)C1CC(=O)Nc1ccc(Cl)cc1` (configuration not stated): the AC50 was 12.6 µM [falling, partial curve]. Turning to `O=C(NC1CCCC1)c1ccc2nc(-c3ccco3)c(-c3ccco3)nc2c1`, the AC50 is 15.8 µM [falling, partial curve]. Regarding `Cn1c(CSc2nc3ccc(Br)cc3[nH]2)nc2ccccc21`, the AC50 is 6.31 µM [falling, partial curve].

Consider `COc1ccc(CNC(=O)c2ccc(CNS(=O)(=O)c3ccc(F)cc3)cc2)cc1`, for which the AC50 was 25.1 µM [rising, single point].

Take `COC(=O)c1sccc1S(=O)(=O)N(CC(=O)NCc1ccc(F)cc1)c1ccc(Cl)cc1`: the concentration at half-maximal activity (AC50) is 25.1 µM [falling, partial curve]. As to `Cc1oc(-c2cccc(Cl)c2)nc1Cn1c(SCc2ccccc2F)nc2ccncc21`, the concentration at half-maximal activity (AC50) was 10 µM [falling, partial curve].

Take `Cc1ccc(NC(=O)C2CCCN2S(=O)(=O)c2ccc3c(c2)CCCC(=O)N3)cc1Cl` (configuration not stated): the AC50 is 25.1 µM [falling, partial curve, poor fit]. `O=C(CSc1ccc2nc(-c3ccccc3)cn2n1)Nc1cccc(F)c1`: the AC50 was 39.8 µM [falling, single point]. Regarding `CS(=O)(=O)c1nc(-c2ccccc2)cc(C(F)(F)F)n1`, the AC50 was 6.31 µM [falling, partial curve].

As for `COc1ccc(Cn2nnc3c(=O)[nH]c(C4CCN(C(=O)c5ccc(C)cc5)CC4)nc32)cc1OC`, the AC50 is 2.51 µM [rising, partial curve]. For the molecule `Cc1ccc(-c2cc(C(F)F)n3ncc(C(=O)N4CCN(c5ccccn5)CC4)c3n2)cc1`, the half-maximal activity concentration (AC50) was 12.6 µM [falling, partial curve]. `O=[N+]([O-])c1ccc(Nc2nc3ccccc3s2)cc1`: the AC50 is 3.98 µM [falling, single point].

With `CCSc1nn(CC(=O)Nc2ccc(C(=O)OC)cc2)c(N)c1S(=O)(=O)c1ccc(C)cc1`, the AC50 was 25.1 µM [falling, single point].

As to `COC(=O)c1cc2occc2n1CC(=O)Nc1ccc(C(C)C)cc1`, the AC50 is 1.26 µM [rising, full curve, poor fit].

As usually defined, the AC50 is the concentration giving half of the maximal activity seen.

For the origin of these results see PubChem BioAssay AID445 (National Center for Advancing Translational Sciences (NCATS), 2006).
